Patent US20230002494A1 (SANYOU BIOPHARMACEUTICALS, published 2023)
Residue numbers refer to the chain shown, from its start. Results are given in words; binding and its absence hold for the method and conditions named. Some results given as binding are weak or reduced against the parent protein; the word gives no strength. For some of these results: Where a sequence is shown, tags or fusion partners need not be part of it. One block for each binder: values may come before it.

Chains of the proteins cited; added tags and fusions are not shown. Residues count along the entry.
UniProt Q9NZQ7, residues 19-290: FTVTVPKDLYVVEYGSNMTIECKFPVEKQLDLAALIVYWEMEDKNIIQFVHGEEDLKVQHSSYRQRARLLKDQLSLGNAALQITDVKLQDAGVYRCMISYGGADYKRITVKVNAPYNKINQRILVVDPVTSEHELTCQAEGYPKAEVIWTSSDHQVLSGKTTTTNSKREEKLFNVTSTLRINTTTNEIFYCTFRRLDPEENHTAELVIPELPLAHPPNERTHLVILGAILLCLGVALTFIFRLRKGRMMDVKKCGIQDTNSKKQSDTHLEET

What was measured:
[1] = molecular target: T1, human PD-L1 (full-length, on cells) (human, UniProt Q9NZQ7 19-290); assay: FACS blocking on PD-L1-CHO cells, lysate samples; the blocked ligand is not named on the sheet or in Example 17
T1 construct: whole, on cells; Expressed on CHO-s cells; also called human PD-L1-CHO; PD-L1-CHO

[2] = molecular target: T1, human PD-L1 (full-length, on cells); assay: FACS blocking on PD-L1-CHO cells; blocked ligand huPD-1 mouse Fc, anti-mouse Fc PE; MFI = bound PD-1
[3] = molecular target: T1, human PD-L1 (full-length, on cells); assay: FACS, VHH lysate on PD-L1-CHO cells (FIG. 10), qualitative/semi-quantitative
[4] = molecular target: T1, human PD-L1 (full-length, on cells); assay: FACS on PD-L1-CHO cells, anti-Llama IgG FITC
[5] = molecular target: rhesus monkey PD-L1 (full-length, on CHO-s cells) (rhesus monkey) (UniProt F6VEW6); assay: FACS, monkey PD-L1-CHO cells

binding [1]: binds
B1: 47 (VHH)
VHH: EVQLVESGGGLVQPGGSLRLSCAASRTLSNIRGMHWYRQAPGKGREWVGTIFIDLNTIVTDSVKGRFTISRDNAKNTLYLQMNTLRAEDTAVYYCAADVSGYGRAWGQGTTVTVSS
notes: also called SY01-D21-47

binding [2]: binds
binding [3]: binds
binding [4]: binds
B2: SY01-NB-004 (VHH lysate) (VHH)
VHH: B1 VHH with A24H, L28D, R32N, L55G, I58L, A105Y

binding [5]: binds
B3: NB22D-21-24 VHH-Fc chimeric antibody protein (Fc fusion)
chain: B1 VHH with L28F, R32F, D54T, L55G
notes: not shown: human IgG1 Fc fragment, its N-terminus linked to the C-terminus of the VHH

binding [5]: binds
B4: NB22D-21 chimeric VHH-Fc antibody (Fc fusion)
chain: EVQVQESGGGLVQAGGSLRLSCAHSRTDSNINGMHWYRQAPGKQRDWVGTIFIDGNTIVTDSVKGRFTISRDNAKNTLYLQMNTLKPEDTAVYFCAADVSGYGRAWGQGTQVTVSS
notes: also called parental antibody NB22D-21; parent molecule; not shown: human IgG1 Fc fragment, its N-terminus linked to the C-terminus of the VHH

binding [5]: binds
B5: NB22D-21-4 VHH-Fc chimeric antibody protein (Fc fusion)
chain: B1 VHH with L28D, S29R, R32N, G33T
notes: as for B3
